# Experimental data taken from patent EP4600262A1, “KERATIN YK93-5, PREPARATION METHOD, AND PHARMACEUTICAL COMPOSITION AND USE THEREOF” (INSTITUTE OF MATERIA MEDICA, CHINESE ACADEMY OF MEDICAL …, priority 2022, dated 2024).
# Counter-ions that a name gives are not always drawn.
# Tested on: mouse pain model
# Test: mouse pain model (1% acetic acid writhing)
# Assay type: in vivo, Male Kunming mice
# Conditions: writhing reaction vs normal control group; Tramadol Hydrochloride 50mg/kg, YK93-5 2g/kg
# Description: • Animals: Male Kunming mice; • Drugs: Tramadol Hydrochloride Sustained Release Tablets, Glacial acetic acid, YK93-5; • Instruments: electronic balance, timer
# • Normal control group; • Positive control group: Tramadol Hydrochloride group; • Protein YK93-5, (2g/kg) group.
# Mice in the YK93-5 (2g/kg) group were administered by gavage, while mice in the model group were given an equal volume of CMC-Na once a day for 7 consecutive days. 30 minutes after the last administration, 1% acetic acid was administered intraperitoneally, and the writhing times of mice within 15 minutes was recorded, and the inhibition rate of drug-induced writhing reaction was calculated. The observation criteria were concave abdominal cavity, extended hind limbs, and raised buttocks.
# The inhibition rate was calculated by (Mean number of writhing reactions in the normal control group - Mean number of writhing reactions in the treatment group)/Mean number of writhing reactions in the normal control group *100%.
structure (smiles),measurement,value
COc1cccc(C2(O)CCCCC2CN(C)C)c1 (stereo not shown) [Tramadol Hydrochloride],Inhibition rate (%),93.88%
